# Assay results reported in article PMC5450158 (European journal of pharmaceutical sciences : official …, 2017).
# Protein sequences, listed by entry. Tags and fused reporters are not part of them. Lines headed by an entry give the natural chain unless they say otherwise; changes in a name come on top.
# UniProt O15438: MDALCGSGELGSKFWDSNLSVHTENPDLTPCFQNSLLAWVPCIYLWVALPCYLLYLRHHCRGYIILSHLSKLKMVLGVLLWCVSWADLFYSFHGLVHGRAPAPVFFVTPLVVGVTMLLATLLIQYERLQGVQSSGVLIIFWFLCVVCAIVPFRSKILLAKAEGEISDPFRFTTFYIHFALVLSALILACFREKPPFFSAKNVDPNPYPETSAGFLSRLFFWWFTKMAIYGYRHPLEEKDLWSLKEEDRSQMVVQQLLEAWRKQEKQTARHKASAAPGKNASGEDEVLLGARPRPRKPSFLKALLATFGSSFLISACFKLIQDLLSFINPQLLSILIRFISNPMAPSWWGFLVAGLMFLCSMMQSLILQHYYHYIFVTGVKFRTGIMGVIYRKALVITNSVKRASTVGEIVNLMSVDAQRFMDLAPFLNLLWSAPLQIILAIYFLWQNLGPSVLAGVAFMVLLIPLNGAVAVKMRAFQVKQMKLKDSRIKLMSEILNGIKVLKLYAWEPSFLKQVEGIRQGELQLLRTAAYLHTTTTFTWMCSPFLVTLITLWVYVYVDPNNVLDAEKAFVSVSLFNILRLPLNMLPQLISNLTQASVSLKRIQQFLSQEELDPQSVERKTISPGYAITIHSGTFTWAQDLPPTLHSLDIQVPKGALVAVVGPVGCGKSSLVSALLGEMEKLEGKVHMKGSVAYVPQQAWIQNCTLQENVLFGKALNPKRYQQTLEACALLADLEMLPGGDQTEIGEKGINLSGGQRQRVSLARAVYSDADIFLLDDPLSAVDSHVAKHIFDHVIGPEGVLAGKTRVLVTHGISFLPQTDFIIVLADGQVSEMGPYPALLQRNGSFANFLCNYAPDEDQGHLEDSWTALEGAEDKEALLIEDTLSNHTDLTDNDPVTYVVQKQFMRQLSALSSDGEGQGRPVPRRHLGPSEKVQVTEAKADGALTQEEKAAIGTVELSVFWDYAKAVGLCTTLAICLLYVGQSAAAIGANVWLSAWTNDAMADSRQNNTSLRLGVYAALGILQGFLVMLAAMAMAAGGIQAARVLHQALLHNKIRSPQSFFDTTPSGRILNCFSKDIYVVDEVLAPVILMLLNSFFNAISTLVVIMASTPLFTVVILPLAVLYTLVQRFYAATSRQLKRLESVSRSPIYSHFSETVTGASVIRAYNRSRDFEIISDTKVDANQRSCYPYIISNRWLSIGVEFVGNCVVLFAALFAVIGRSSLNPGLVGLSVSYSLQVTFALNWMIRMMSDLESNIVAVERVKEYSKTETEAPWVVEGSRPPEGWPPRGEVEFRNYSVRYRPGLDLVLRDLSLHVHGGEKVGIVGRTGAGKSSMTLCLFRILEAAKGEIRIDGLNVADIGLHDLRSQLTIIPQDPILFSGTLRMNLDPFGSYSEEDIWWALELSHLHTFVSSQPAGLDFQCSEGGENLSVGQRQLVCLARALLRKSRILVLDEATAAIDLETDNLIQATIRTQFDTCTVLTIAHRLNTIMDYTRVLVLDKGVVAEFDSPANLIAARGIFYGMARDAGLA
# Target: MRP3 (ABCC3) (Homo sapiens, UniProt O15438)
# Assay: inhibition of ATP-dependent [3H]-E217G uptake, membrane vesicles
# Settings: 10 μM E217G, 5 min, 37 °C, 100 μM compound, value is remaining uptake
smiles,measurement,value
CCCCc1oc2ccccc2c1C(=O)c1cc(I)c(OCCN(CC)CC)c(I)c1 [amiodarone],"E217G uptake, % of control at 100 μM",58.4%
